Measured values: US20200239543A1 (ALX ONCOLOGY, published 2020)
Results are given in words; binding and its absence hold for the method and conditions named. Some results given as binding are weak or reduced against the parent protein; the word gives no strength. Sequences can lack the tags named with a protein.

The chains behind the UniProt entries cited, without tags or fusion partners. Where a name states a change or a piece, a line headed by the entry shows the natural chain unless it says otherwise.
UniProt P02745: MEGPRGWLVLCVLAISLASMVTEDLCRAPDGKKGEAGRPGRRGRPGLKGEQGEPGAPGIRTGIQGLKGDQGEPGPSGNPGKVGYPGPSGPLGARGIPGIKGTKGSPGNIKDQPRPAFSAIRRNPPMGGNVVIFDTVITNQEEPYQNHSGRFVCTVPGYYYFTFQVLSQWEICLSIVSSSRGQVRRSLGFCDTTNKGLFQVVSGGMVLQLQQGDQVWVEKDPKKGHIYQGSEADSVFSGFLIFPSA

What was measured:
complement protein C1q [1] = molecular target: complement protein C1q (UniProt P02745); assay: C1q ELISA on coated SIRP-α Fc fusion
complement protein C1q [2] = molecular target: complement protein C1q (UniProt P02745); assay: ELISA: SIRP-α-Fc fusion coated on the plate, human C1q titrated from 0.13 to 100 ug/ml, detection with HRP-conjugated anti-human-C1q

B1: SIRP-α Fc construct with wildtype IgG2 Fc, SEQ ID NO: 126 (Fc fusion)
chain: EEELQIIQPDKSVLVAAGETATLRCTITSLFPVGPIQWFRGAGPGRVLIYNQRQGPFPRVTTVSDTTKRNNMDFSIRIGNITPADAGTYYCIKFRKGSPDDVEFKSGAGTELSVRAKPSERKCCVECPPCPAPPVAGPSVFLFPPKPKDTLMISRTPEVTCVVVDVSHEDPEVQFNWYVDGVEVHNAKTKPREEQFNSTFRVVSVLTVVHQDWLNGKEYKCKVSNKGLPAPIEKTISKTKGQPREPQVYTLPPSREEMTKNQVSLTCLVKGFYPSDIAVEWESNGQPENNYKTTPPMLDSDGSFFLYSKLTVDKSRWQQGNVFSCSVMHEALHNHYTQKSLSLSPGK
binding (complement protein C1q [1]): binds
binding (complement protein C1q [2]): binds
